Reference: patent publication US20250163116A1, “NEW METHOD TO TREAT INFECTIOUS DISEASES” (INSERM (INSTITUT NATIONAL DE LA SANTÉ ET DE LA RECHERCHE …, priority 2022, published 2025)
Results are given in words; binding and its absence hold for the method and conditions named. In cells and extracts the contact can be indirect. Some entries that bind do so weakly or less than the wild type.

Target: T1, Syndecan-4 (human) (UniProt P31431)
T1 sequence (looked up): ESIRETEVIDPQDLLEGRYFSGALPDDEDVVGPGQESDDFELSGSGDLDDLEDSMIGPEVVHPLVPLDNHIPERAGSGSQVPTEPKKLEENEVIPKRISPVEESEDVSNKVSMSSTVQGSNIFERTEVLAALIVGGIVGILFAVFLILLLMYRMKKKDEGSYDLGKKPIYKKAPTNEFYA
Assay: co-immunoprecipitation from endothelial cells infected by N. meningitidis

binding: binds
B1: ANGPTL4 produced by human endothelial cells (endogenous) (ligand)
chain: GPVQSKSPRFASWDEMNVLAHGLLQLGQGLREHAERTRSQLSALERRLSACGSACQGTEGSTDLPLAPESRVDPEVLHSLQTQLKAQNSRIQQLFHKVAQQQRHLEKQHLRIQHLQSQFGLLDHKHLDHEVAKPARRKRLPEMAQPVDPAHNVSRLHRLPRDCQELFQVGERQSGLFEIQPQGSPPFLVNCKMTSDGGWTVIQRRHDGSVDFNRPWEAYKAGFGDPHGEFWLGLEKVHSITGDRNSRLAVQLRDWDGNAELLQFSVHLGGEDTAYSLQLTAPVAGQLGATTVPPSGLSVPFSTWDQDHDLRRDKNCAKSLSGGWWFGTCSHSNLNGQYFRSIPQQRQKLKKGIFWKTWRGRYYPLQATTMLIQPMAAEAAS
